Assay results from article PMC5955133.
These are yes or no findings as the source states them, for the method shown. In cells and extracts the contact can be indirect. Some binding calls cover weakened binding; strength is not graded here. Where a sequence is shown, tags or fusion partners need not be part of it.

Amino acid sequences for entries named in this document (tags omitted).
UniProt P06788: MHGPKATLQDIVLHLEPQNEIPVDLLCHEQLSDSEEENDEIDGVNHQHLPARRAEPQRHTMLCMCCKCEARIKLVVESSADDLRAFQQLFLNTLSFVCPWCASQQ

B1: GSTM3 (glutathione S-transferase family member) (protein, UniProt P21266 1-225)
chain: MSCESSMVLGYWDIRGLAHAIRLLLEFTDTSYEEKRYTCGEAPDYDRSQWLDVKFKLDLDFPNLPYLLDGKNKITQSNAILRYIARKHNMCGETEEEKIRVDIIENQVMDFRTQLIRLCYSSDHEKLKPQYLEELPGQLKQFSMFLGKFSWFAGEKLTFVDFLTYDILDQNRIFDPKCLDEFPNLKAFMCRFEALEKIAAYLQSDQFCKMPINNKMAQWGNKPVC

Tests used:
[1] = biological target: T1, recombinant human GSTM3 protein with a His-tag added at the N-terminus (N-6x His-tag) (human) (UniProt P21266); assay: pull-down; recombinant GSTM3 N-6x His captured (nickel beads), incubated with a protein extract from HeLa cells; eluate blotted with anti-HPV18 E7; only the target purified
T1 sequence: B1 chain

[2] = biological target: recombinant HPV18 E7 C-6x-his-tagged protein (HPV18) (UniProt P06788); assay: pull-down; HeLa cells transfected with HPV18 E7 C-6x His; cell lysates subjected to Ni 6x His-tag pull-down; western blot; GSTM3 identified by MALDI-TOF and/or MS/MS

Molecule	binding [1]	binding [2]
E7 protein from HPV18 (from UniProt P06788 1-105)	binds	–
B1	–	binds
